Reference: publication PMC11990898, “Novel Isatin–Chalcone Hybrid Molecules: Design, Synthesis and Anti-Neuroinflammatory Activity Evaluation” (Molecules, 2025)

Test system: NO release from LPS-stimulated BV2 cells
Test: NO release inhibition in LPS-stimulated BV2 cells (Griess method)
Format: cell-based, mouse
Conditions: cell viability IC50/NO inhibition IC50
Description: BV2 cells stimulated by lipopolysaccharide (LPS) lead to an increase in NO release. Therefore, we used the inhibitory ability of the target compounds on NO as a preliminary method to evaluate their anti-neuroinflammatory properties. We evaluated the inhibitory ability of isatin–chalcone hybrid derivatives 4a–t on the release of NO from BV2 cells at 20 μM. The release amount of NO was detected by the Griess method, and the actual release amount of NO was calculated based on the experimental data.
BV2 cells were plated in 96-well microplates at 40,000 cells per well (100 μL/well) and incubated for 24 h. Then, 50 μL of LPS solution with a final concentration of 100 ng/mL and 50 μL of compounds (diluted with medium to a final concentration of 0.31–20 μM) were added, and each concentration had 3 parallel wells. The NO assay kit was used to carry out nitrite assays after 24 h. The 50 μL of culture medium was mixed with the GrisR1 (50 μL) and GrisR2 (50 μL) of the NO assay kit in another new 96-well plate. The absorbance was detected at 540 nm. The percentage of inhibition of NO was obtained from the following formula: [(Rlps − RB − RC)/(Rlps − RB)] × 100, where Rlps is the release amount of only the LPS-treated group, RB is the release amount of the normal control and RC is the release amount of the test compound and LPS-treated group. The IC50 values of test compounds were calculated by linear regression plots.

Compound | Therapeutic Index (TI)
COC(=O)CN1C(=O)/C(=C/C(=O)c2cc(OC)c(OC)c(OC)c2)c2ccccc21 [Compound 5a, Methyl (E)-2-(2-oxo-3-(2-oxo-2-(3,4,5-trimethoxyphenyl)ethylidene)indolin-1-yl)acetate] | 7.2
CCCCCCCCCCCOC(=O)CN1C(=O)/C(=C/C(=O)c2cc(OC)c(OC)c(OC)c2)c2ccccc21 [Compound 5c, Undecyl (E)-2-(2-oxo-3-(2-oxo-2-(3,4,5-trimethoxyphenyl)ethylidene)indolin-1-yl)acetate] | 3.1
COc1cc(C(=O)/C=C2/C(=O)N(CC(=O)OCCc3ccccc3)c3ccccc32)cc(OC)c1OC [Compound 5f, Phenethyl (E)-2-(2-oxo-3-(2-oxo-2-(3,4,5-trimethoxyphenyl)ethylidene)indolin-1-yl)acetate] | 4.0
COc1cc(C(=O)/C=C2/C(=O)N(CC(=O)OCCCc3ccccc3)c3ccccc32)cc(OC)c1OC [Compound 5g, 3-Phenylpropyl (E)-2-(2-oxo-3-(2-oxo-2-(3,4,5-trimethoxyphenyl)ethylidene)indolin-1-yl)acetate] | 8.1
CCCCCc1ccc(C(=O)/C=C2/C(=O)N(CC(=O)OCC)c3ccccc32)cc1 [Compound 4g, Ethyl (E)-2-(2-oxo-3-(2-oxo-2-(4-pentylphenyl)ethylidene)indolin-1-yl)acetate] | 2.8
CCCCCCCOC(=O)CN1C(=O)/C(=C/C(=O)c2cc(OC)c(OC)c(OC)c2)c2ccccc21 [Compound 5b, Heptyl (E)-2-(2-oxo-3-(2-oxo-2-(3,4,5-trimethoxyphenyl)ethylidene)indolin-1-yl)acetate] | 2.9
CCOC(=O)CN1C(=O)/C(=C/C(=O)c2cc(OC)c(OC)c(OC)c2)c2ccccc21 [Compound 4j, Ethyl (E)-2-(2-oxo-3-(2-oxo-2-(3,4,5-trimethoxyphenyl)ethylidene)indolin-1-yl)acetate] | 4.6
CCOC(=O)CN1C(=O)/C(=C/C(=O)/C=C/c2ccccc2)c2ccccc21 [Compound 4b, Ethyl 2-((E)-2-oxo-3-((E)-2-oxo-4-phenylbut-3-en-1-ylidene)indolin-1-yl)acetate] | 21.6
CCOC(=O)CN1C(=O)/C(=C/C(=O)c2cc(OC)c(OC)c(OC)c2)c2cc(OC)ccc21 [Compound 9f, Ethyl (E)-2-(5-methoxy-2-oxo-3-(2-oxo-2-(3,4,5-trimethoxyphenyl)ethylidene)indolin-1-yl)acetate] | 7.5
CCOC(=O)CN1C(=O)/C(=C/C(=O)c2cc(OC)c(OC)c(OC)c2)c2cc(C)ccc21 [Compound 9e, Ethyl (E)-2-(5-methyl-2-oxo-3-(2-oxo-2-(3,4,5-trimethoxyphenyl)ethylidene)indolin-1-yl)acetate] | 7.8
